Measured values reported in PubChem BioAssay AID662 (National Center for Advancing Translational Sciences (NCATS), 2007).
Some of the results follow. Shown are side measurements of this screen, not its main read-out; they come without a call. The list favours compounds with an active or inconclusive main result. The note in brackets gives the kind of curve behind each potency; many fits are weak.

Experiment: Cell signaling CRE-BLA (Fsk stim)
Conditions: CHO CRE-bla reporter (cAMP response element driving beta-lactamase), forskolin EC10, beta-lactamase ratio; measured here: 460 nm blue channel
Outline: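 Using CellSensor CRE-bla CHO cells in Opti-MEM with 0.5% dialyzed FBS, compounds were titrated with EC10 NKH 477 for 3 h at 37 °C. CCF4 ratio (460/530 nm) gave %Activity; AC50 derived.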

Compound | AC50
Cc1cc(C)nc(NS(=O)(=O)c2ccccc2)n1 | 3.16 µM [falling, single point]
N#Cc1nc(Cc2cccc3ccccc23)oc1N1CCOCC1 | 10 µM [rising, single point]
Cc1ccccc1N=C1NC(=O)CS1 | 0.1 µM [falling, full curve]
COc1ccc(Cn2cccc(NC(=O)Nc3ccc(C#N)cc3)c2=O)cc1 | 0.251 µM [rising, full curve, poor fit]
CCNc1ncc2nc(-c3ccc(F)cc3)c(=O)n(CCOC)c2n1 | 5.01 µM [rising, partial curve]
COc1ccccc1-n1c(SCC(=O)Nc2ccc3c(c2)OCO3)nc2c(c1=O)SCC2 | 25.1 µM [rising, single point]
Cc1cccc(-n2ncc3c(N)ncnc32)c1 | 12.6 µM [rising, single point]
CN(C)S(=O)(=O)c1ccc(C(=O)Nc2ccccn2)cc1 | 0.126 µM [falling, full curve]
CC(C)C(OC(=O)c1ccco1)C(=O)NCc1ccccc1 (centres undefined) | 0.501 µM [falling, full curve, poor fit]
CN1CCCc2cc(C#N)c(=O)[nH]c21 | 0.794 µM [rising, full curve]
CC1=C(C#N)C(C)C2=C(CC(C)(C)CC2=O)N1 (centres undefined) | 20 µM [rising, single point]
O=C(CN1CCN(c2ccccn2)CC1)Nc1ccc2ccccc2c1 | 3.98 µM [falling, full curve]
COc1cc(OC)c(-c2nn3c(-c4ccncc4)nnc3s2)cc1OC | 10 µM [rising, partial curve]
COc1ccc(C(=O)Nc2nc(-c3cccs3)cs2)cc1 | 25.1 µM [falling, single point]
CC1=C(C(=O)OCc2ccccc2)C(c2ccc3ccccc3c2)NC(=O)N1CCCCCC(=O)O (centres undefined) | 10 µM [rising, partial curve]
Cc1c(C(=O)OC2CCC(C)CC2)[nH]c2c1C(=O)CCC2 (centres undefined) | 10 µM [rising, partial curve]
Clc1ccc(-c2nc3nc4ccccc4nc3n2Cc2ccco2)cc1 | 12.6 µM [rising, single point]
CCOC(=O)Cn1nnc(-c2cccc(OC)c2)n1 | 0.01 µM [falling, full curve, poor fit]
Nc1cc(Cl)ccc1Oc1ccccc1 | 0.00794 µM [falling, full curve, poor fit]
Cn1c(C(=O)NC2CCCC2)cc2c(=O)n(C)c3ccccc3c21 | 5.01 µM [rising, partial curve]
CSc1nnc2c(n1)OC(C)N(C(=O)c1ccccc1)c1ccccc1-2 (centres undefined) | 0.0794 µM [falling, full curve]
O=C(Nc1ccccc1Oc1ccccc1)c1ccc(Br)o1 | 1 µM [rising, partial curve]
COc1ccc(-c2cc(C(F)(F)F)nc(SCC(=O)Nc3cc(C)on3)n2)cc1OC | 1.26 µM [rising, full curve]

Compound | AC50
C=C(C)Cn1c(SCCCO)nc2c1c(=O)[nH]c(=O)n2C | 15.8 µM [rising, single point]
N#Cc1ccccc1Cn1c(=O)n(CCCC(=O)NCc2ccc3c(c2)OCO3)c(=O)c2ccccc21 | 0.316 µM [falling, partial curve]
COCCn1c(N2CCN(c3ccc(OC)cc3)CC2)nc2c1c(=O)[nH]c(=O)n2C | 12.6 µM [falling, partial curve]
Cc1cnc(NC(=O)CSc2nc3ccccc3c(=O)[nH]2)s1 | 10 µM [rising, partial curve]
O=C(Cc1coc2cc3c(cc12)CCC3)OCc1cc(=O)n2c(n1)sc1ccccc12 | 15.8 µM [rising, single point]
O=c1cnc2cnc(Oc3cccc(Cl)c3)nc2n1CCc1ccccc1 | 15.8 µM [rising, partial curve]
CC(C)c1cc(Nc2cccc(O)c2)cc(C(C)C)c1O | 12.6 µM [falling, partial curve]
C=CCn1c(SCC2=C(C(=O)OCC)C(C)NC(=O)N2)nnc1C1CCCCC1 (centres undefined) | 0.251 µM [falling, partial curve]
CCOc1ncccc1C(=O)OCc1nnc(-c2ccccc2)o1 | 3.16 µM [rising, single point]
CC(=O)c1ccc(NC(=O)CSc2nc3nc(C)cc(C)n3n2)cc1 | 10 µM [rising, partial curve]
CCOCCCN(C(=O)CNC(=O)c1ccco1)C(C(=O)NC1CCCC1)c1ccccc1C (centres undefined) | 0.1 µM [falling, full curve]
CC1N=C2c3ccccc3N=C(SCc3cc(=O)n4ccccc4n3)N2C1=O (centres undefined) | 0.794 µM [rising, full curve]
O=C(COC(=O)CCCc1c[nH]c2ccccc12)Nc1ccc2c(c1)OCO2 | 5.01 µM [falling, single point]
O=C(O)C1CC=CCC1C(=O)Nc1ccc(F)c(F)c1 (centres undefined) | 3.16 µM [falling, single point]
CC(C)Cn1nc(NC(=O)C2CCCO2)c2cc3ccccc3nc21 (centres undefined) | 12.6 µM [rising, partial curve]
OC1(CN2CCOCC2)C2CN3CCN(C2)CC1(c1ccccc1)C3 (centres undefined) | 0.794 µM [falling, full curve]
N#CC1=C(N)Oc2cc(N)ccc2C1C1CC=CCC1 (centres undefined) | 25.1 µM [rising, single point]
CC(=O)Nn1cc2c(=O)n(C)c(=O)n(C)c2c1 | 10 µM [falling, partial curve, poor fit]
CCNS(=O)(=O)c1ccc(NC(=O)Cn2nc(C(F)(F)F)cc2C)cc1 | 0.00501 µM [falling, full curve, poor fit]
CCc1nc(N)c(C#N)c(-c2ccc(OC)c(OC)c2)c1C | 12.6 µM [rising, partial curve]
Cc1c2c(nc3c(C(=O)NC4CCCC4)cnn13)CCCC2 | 2 µM [rising, full curve]
COc1cc2[nH]c(=O)n(CCCC(=O)NCCc3ccccc3)c(=O)c2cc1OC | 12.6 µM [rising, single point]
CCCn1c2ccccc2c2nc3ccccc3nc21 | 0.00794 µM [rising, full curve, poor fit]

Compound | AC50
c1cncc(-c2nc(NCc3cccs3)c3ccccc3n2)c1 | 6.31 µM [rising, partial curve]
CC1CCC(NC(=O)c2cc3c(=O)n(C)c4ccccc4c3n2C)CC1 (centres undefined) | 3.16 µM [rising, single point]
Cc1ccc(C(=O)Nc2ccc3c(c2)nc2n3CCSC2)cc1 | 0.631 µM [rising, full curve]
N#CCCNCC1(c2ccccc2)CCCC1 | 5.01 µM [falling, single point]
CCn1nc(NS(=O)(=O)c2ccccc2)c2cc3cccc(C)c3nc21 | 25.1 µM [rising, single point]
COc1ccc(C(=O)N2CCN(c3nc4cc(C)ccc4cc3C#N)CC2)c(OC)c1 | 25.1 µM [falling, single point]
O=C(c1ccc(CS(=O)(=O)c2ccccc2)o1)N1CCN(c2ncccn2)CC1 | 12.6 µM [rising, partial curve]
O=C(Nc1nc(-c2nc3ccccc3s2)cs1)C1CC1 | 12.6 µM [rising, partial curve]
C=C(C)COc1ccc(-c2[nH]ncc2Oc2cccc(OC)c2)c(O)c1 | 10 µM [falling, partial curve]
COc1ccc(OC)c(S(=O)(=O)N2CCCCC2C(=O)N2CCN(c3ccccn3)CC2)c1 (centres undefined) | 25.1 µM [rising, single point]
C=CCNC(=O)c1ccncc1 | 3.16 µM [falling, partial curve]
N#Cc1c(NC(=O)c2cc(-n3cnnc3)ccc2Cl)sc2c1CCCC2 | 3.16 µM [falling, full curve]
COc1cccc(-c2nc(CS(=O)(=O)CC(=O)N3CCN(c4ccccn4)CC3)c(C)o2)c1 | 12.6 µM [rising, single point]
CC(C)(C)NC(=O)C1N(c2cccnc2)C(=O)C2C(C(=O)Nc3ccccc3F)C3(C)C=CC21O3 (centres undefined) | 5.01 µM [rising, single point]
Cc1cc2nc(SC(C)C(=O)O)[nH]c2cc1C (centres undefined) | 25.1 µM [falling, single point]
Cc1cc(N2CCN(C(=O)c3ccco3)CC2)n2nc(C)c(-c3ccc(Cl)cc3)c2n1 | 25.1 µM [rising, single point]
Cc1cc(C)n2c(SCC(=O)N3CCN(S(=O)(=O)c4ccc(Cl)cc4)CC3)nnc2n1 | 5.01 µM [falling, single point]
CC(C)CCn1c(=O)c2ccccc2n2c(COC(=O)c3ccc(S(=O)(=O)N(C)C)cc3)nnc12 | 12.6 µM [rising, single point]
O=c1[nH]c(CN2CCN(Cc3ccccc3)CC2)nc2sc3c(c12)CCC3 | 3.16 µM [rising, partial curve]
Cn1c(=O)n(C)c2cc(S(=O)(=O)NCCc3ccccc3)ccc21 | 0.398 µM [rising, full curve]
COc1ccc(NC(=O)c2oc3ccc(S(=O)(=O)N4CCC5(CC4)OCCO5)cc3c2C)cc1 | 5.01 µM [falling, partial curve]
CC(CCO)Nc1nc2c(c(=O)n(C)c(=O)n2C)n1Cc1cccc(Br)c1 (centres undefined) | 12.6 µM [rising, partial curve]
CCCn1c(=O)[nH]c(=O)c2c1nc(-c1ccc3c(c1)OCCO3)n2CCN1CCOCC1 | 5.01 µM [rising, full curve]

Of the compounds above, 14 contain an aryl methoxy group:
Compound | AC50
COc1ccc(Cn2cccc(NC(=O)Nc3ccc(C#N)cc3)c2=O)cc1 | 0.251 µM [rising, full curve, poor fit]
COc1ccccc1-n1c(SCC(=O)Nc2ccc3c(c2)OCO3)nc2c(c1=O)SCC2 | 25.1 µM [rising, single point]
COc1cc(OC)c(-c2nn3c(-c4ccncc4)nnc3s2)cc1OC | 10 µM [rising, partial curve]
COc1ccc(C(=O)Nc2nc(-c3cccs3)cs2)cc1 | 25.1 µM [falling, single point]
CCOC(=O)Cn1nnc(-c2cccc(OC)c2)n1 | 0.01 µM [falling, full curve, poor fit]
COc1ccc(-c2cc(C(F)(F)F)nc(SCC(=O)Nc3cc(C)on3)n2)cc1OC | 1.26 µM [rising, full curve]
COCCn1c(N2CCN(c3ccc(OC)cc3)CC2)nc2c1c(=O)[nH]c(=O)n2C | 12.6 µM [falling, partial curve]
CCc1nc(N)c(C#N)c(-c2ccc(OC)c(OC)c2)c1C | 12.6 µM [rising, partial curve]
COc1cc2[nH]c(=O)n(CCCC(=O)NCCc3ccccc3)c(=O)c2cc1OC | 12.6 µM [rising, single point]
COc1ccc(C(=O)N2CCN(c3nc4cc(C)ccc4cc3C#N)CC2)c(OC)c1 | 25.1 µM [falling, single point]
C=C(C)COc1ccc(-c2[nH]ncc2Oc2cccc(OC)c2)c(O)c1 | 10 µM [falling, partial curve]
COc1ccc(OC)c(S(=O)(=O)N2CCCCC2C(=O)N2CCN(c3ccccn3)CC2)c1 (centres undefined) | 25.1 µM [rising, single point]
COc1cccc(-c2nc(CS(=O)(=O)CC(=O)N3CCN(c4ccccn4)CC3)c(C)o2)c1 | 12.6 µM [rising, single point]
COc1ccc(NC(=O)c2oc3ccc(S(=O)(=O)N4CCC5(CC4)OCCO5)cc3c2C)cc1 | 5.01 µM [falling, partial curve]
